Test results reported in PubChem BioAssay AID588499 (NMMLSC, 2011).
In all, about 360,000 compounds went through this assay and about 610 (0.17%) were called active. Inconclusive means that the source gave no clear call. Such entries were picked first, then a sample of the others. No stated cut-off is given here; in the data, active means inhibition above about 30%; inconclusive means no clear call, values can overlap the other calls; inactive means below that.

Each compound was assayed on Botulinum neurotoxin type A light chain protease (Clostridium botulinum A str. ATCC 3502) (assay: blockers of BoNT/A LC substrate cleavage – biochemical, flow cytometry, MLPCN library, primary screen (AID 588499; further: plate controls were buffer without enzyme for full effect and enzyme alone for no effect)). Conditions: multiplex microsphere protease substrate cleavage, at 10 µM, hits give high values.

| SMILES | inhibition |
| --- | --- |
| COc1ccc(OC)c(-n2cnnn2)c1 | inconclusive: 2.6% |
| CCn1nnnc1NCc1ccc(SC)cc1 | inactive: -1% |
| CCN1/C(=C/c2ccc3cc(C)ccc3[n+]2CC)Sc2cc(C)c(C)cc21 | active: 48.8% |
| Cn1c(=O)[nH]c(=O)c2c1nc(N1CCNCC1)n2Cc1ccccc1Cl | inconclusive: 5.8% |
| CC(C)(C)NC(=O)C1CCN(c2ccc(S(=O)(=O)N3CCOCC3)cc2Cl)CC1 | inactive: 0.3% |
| Cc1cc(-n2c(C)cc(C(=O)COc3ccc(Cl)cc3C(N)=O)c2C)no1 | inactive: 2.6% |
| Cn1nccc1NS(=O)(=O)c1ccc(NC(=O)C(F)(F)F)cc1 | inactive: 2.4% |
| Cc1c(C(=O)O)c(C(=O)O)c2n1CCS2 | inconclusive: -2.8% |
| Cc1ccc(C)c(NC(=O)CCC(=O)OC(C(=O)c2ccccc2)c2ccccc2)c1 (centres undefined) | inactive: 2.2% |
| O=C(O)CCc1nn2c3ccccc3n(CC(=O)c3cccs3)c2nc1=O | inactive: 0.3% |
| Cc1cc(C)n(CCc2nc(-c3ccco3)cs2)n1 | inactive: 3.3% |
| O=C(c1ccc(Cl)cc1)N1N=CCC1(O)c1ccc(Cl)cc1 (centres undefined) | inconclusive: 5.7% |
| Cc1ccc(C(=O)C[n+]2cc(-c3ccccc3)n3c2CCCCC3)cc1 | inconclusive: -4.6% |
| CCOc1ccc(N(CC(=O)NCc2ccc(OC)cc2)C(=O)CCC(=O)Nc2nccs2)cc1 | inconclusive: 0.3% |
| CC(=O)N(CCN(C(C)=O)c1ccccc1)c1ccccc1 | inactive: -1.3% |
| COc1ccccc1/C=C/C(=O)Nc1nc(N)n(-c2ccccc2)n1 | inconclusive: -2.2% |
| CN1CCN(C(=O)CCC(=O)NCc2ccc(F)cc2)CC1 | inconclusive: -2% |
| CC(C)COC(=O)N(C)C[C@@H]1OCc2cnnn2CCCC(=O)N([C@H](C)CO)C[C@@H]1C | inactive: -0.2% |
| COc1ccc(OC)c(NC(=S)N2CCN(C(=O)C3CCCO3)CC2)c1 (centres undefined) | inactive: -0.8% |
| COCCNC(=O)c1cc2c3ccccc3n(C)c2s1 | inconclusive: 21.4% |
| CCCc1nc2c3ccccc3ccn2c1Cc1ccc(OC)cc1C | inconclusive: 7.5% |
| CCSc1nc2sc3c(c2c(=O)n1-c1ccccc1)CCN(C(C)C)C3 | active: 56.6% |
| CCN(CC)CCN(Cc1cc2ccc(C)c(C)c2[nH]c1=O)C(=S)NCc1ccco1 | inactive: -1.2% |
| Cc1cc(=O)oc2cc(OCC(=O)NCCc3nc4ccccc4[nH]3)ccc12 | inconclusive: -6.8% |

Some of the entries so far, as tab-separated lines.
SMILES	inhibition
Cc1ccc(C)c(NC(=O)CCC(=O)OC(C(=O)c2ccccc2)c2ccccc2)c1 (centres undefined)	inactive: 2.2%
O=C(O)CCc1nn2c3ccccc3n(CC(=O)c3cccs3)c2nc1=O	inactive: 0.3%
Cc1cc(C)n(CCc2nc(-c3ccco3)cs2)n1	inactive: 3.3%

Following part.

| SMILES | inhibition |
| --- | --- |
| O=C(Nc1ccc(CN2CCOCC2)cc1)c1ccccc1F | inconclusive: -5.3% |
| Cc1cc(C(=O)O)n(C(C)(C)C)n1 | inconclusive: -2.5% |
| CC(=O)c1ccc(NC(=O)CN2C(=O)/C(=C/C=C/c3ccccc3)SC2=S)cc1 | active: 46.9% |
| CC1(C)C(C=C(Cl)Cl)C1C(=O)N/N=C/c1ccccc1F (centres undefined) | inconclusive: -4.6% |
| CC1=NN(C(=O)c2ccccc2)C(O)(c2ccc(Br)cc2)C1 (centres undefined) | inconclusive: 4.7% |
| C=CCn1c(CSc2ccc(C)cc2)n[nH]c1=S | inactive: 1.3% |
| CSCCC(NC(=O)c1ccccc1Br)C(=O)NNC(=O)c1ccco1 (centres undefined) | inconclusive: 2.7% |
| Cc1ccc(S(=O)(=O)NCCSC(C)(C)C)cc1 | inconclusive: 23.3% |
| CCCCN1CC(=O)N2[C@H]3c4cc(Cl)ccc4OC[C@@H]3[C@H](C(=O)OCC)[C@]2(C)C1=O | inactive: 0.4% |
| CNC(=S)NNC(=O)c1cccs1 | inconclusive: -27.6% |
| CN(C)/C=C/C(=O)c1ccc2noc(-c3cccc(F)c3)c2c1 | inactive: 10.4% |
| O=C(c1ccc2ccccc2c1)C1CCCN(C(=O)c2noc3c2CCCC3)C1 (centres undefined) | inactive: -0.3% |
| NC(=O)c1cnn2c(C(F)(F)F)cc(-c3ccccc3)nc12 | inactive: -0.5% |
| O=C(NN=Cc1ccccc1Cl)c1ccc(-n2cnnn2)cc1 | inactive: -9.3% |
| CC1CCCCN1C(=O)c1cc(-c2ccc(Cl)c(Cl)c2)on1 (centres undefined) | inconclusive: 0.7% |
| O=C(Nc1cccn2ncnc12)c1ccc(Cl)cc1 | inconclusive: -2.7% |
| CC(C)Oc1cccc(C(=O)O)c1 | inconclusive: 11.9% |
| N#C/C(=C/c1ccc(Sc2nc3ccccc3[nH]2)o1)c1ccccc1F | inconclusive: -1.2% |
| COC(=O)c1[nH]c2ccccc2c1NS(=O)(=O)c1ccc(F)c(C)c1 | inactive: -0.4% |
| C=CCn1c(-c2ccc(C)cc2)nc2ccccc21 | inconclusive: 3.1% |
| COC(=O)c1cc(F)c(-n2cncn2)c(F)c1 | inconclusive: -0.7% |
| C=CCN1C(=O)CSC1=Nc1cccc(O)c1 | inconclusive: 37.4% |
| O=C(Nc1nc(-c2ccc3c(c2)OCO3)cs1)c1ccncc1 | inconclusive: -1.2% |
| O=C(Oc1ccc2c(c1)OCO2)c1ccc(Br)c(S(=O)(=O)N2CCOCC2)c1 | inconclusive: -0.1% |

Already shown: entries from further up.

| SMILES | inhibition |
| --- | --- |
| CN(C)/C=C/C(=O)c1ccc2noc(-c3cccc(F)c3)c2c1 | inactive: 10.4% |
| O=C(c1ccc2ccccc2c1)C1CCCN(C(=O)c2noc3c2CCCC3)C1 (centres undefined) | inactive: -0.3% |

(cont.)

| SMILES | inhibition |
| --- | --- |
| CC(Oc1ccc2ccc(=O)oc2c1)C(=O)NC1CCN(Cc2ccccc2)CC1 (centres undefined) | inactive: -2.1% |
| N#C/C(=N\O)c1nc2ccccc2s1 | inactive: 0.3% |
| Cc1cc(C)cc(NC(=O)CSc2nc(N)c(NC(=O)c3cccs3)c(=O)[nH]2)c1 | inactive: -0.5% |
| CC(=O)NCCn1c(SCc2cc(=O)n3cc(Cl)ccc3n2)nc2ccccc2c1=O | inconclusive: 3.3% |
| O=C(COc1ccc2ccc(=O)oc2c1)NC1CCCC1 | inactive: 3.5% |
| CC(=O)c1c(C)nn(-c2ccccc2)c1C | inconclusive: 5.5% |
| COC(=O)Cc1c[nH]c2cccc(OCC(O)CN(Cc3ccc([N+](=O)[O-])cc3)C(C)(C)C)c12 (centres undefined) | inactive: -3% |
| COc1ccc(C(CNC(=O)C(C)Sc2ccccc2)N2CCOCC2)cc1 (centres undefined) | inactive: 2.9% |
| Cc1cc(=O)oc(C)c1C(=O)NCc1ccccc1 | inactive: -0.1% |
| CC(=O)Oc1ccc(C(=O)NCc2ccc3c(c2)OCO3)cc1 | inconclusive: -0.6% |
| Cc1cc(C2C(C#N)=C(N)OC3=C2C(=O)CCC3)c(C)s1 (centres undefined) | inactive: -1% |
| O=C(CN1CCN(Cc2ccc(Cl)cc2)C1=O)NCCCN1CCOCC1 | inactive: 0.1% |
| c1ccc(CSc2snnc2-c2ccccc2)cc1 | inconclusive: -2.3% |
| COc1ccc(C(=O)Nc2ccccc2C(=O)NCCCn2ccnc2)cc1 | inactive: -0.4% |
| O=C(c1cnn2ccccc12)N1CCCc2ccccc21 | inactive: -0.1% |
| FC(F)(F)c1ccnc(Sc2n[nH]c(C(F)(F)F)n2)c1 | inconclusive: -3.9% |
| Cn1cc(Cl)c(-c2nc3ccccc3[nH]2)n1 | inconclusive: 3.4% |
| N#CC1(NC(=O)CSc2nnc(COc3ccccc3F)n2N)CCCCC1 | inconclusive: 7.5% |
| CNc1nc(NCc2ccccc2)c2sccc2n1 | inactive: -0.3% |
| O=C(Nc1ccccc1N1CCCC1)c1ccccc1F | inactive: 1.3% |
| O=C(NCCCn1ccnc1)Nc1ccc(Cl)cc1 | inconclusive: -3.9% |
| COC(=O)c1cccc(NC(=O)c2ccccc2)c1 | inconclusive: -52.1% |
| Oc1ccc(NCc2cccc(OCc3ccccc3)c2)cc1 | inactive: -0.9% |
| S=c1c2c(nc3nc[nH]n13)CCC2 | inconclusive: -1.8% |

| SMILES | inhibition |
| --- | --- |
| CCN(CC)S(=O)(=O)c1cccc(S(=O)(=O)c2cccc(S(=O)(=O)N(CC)CC)c2)c1 | inconclusive: 2.6% |
| CCOC(=O)c1ccccc1NC(=O)CSc1nnc(COc2ccccc2C)n1C | inconclusive: 6% |
| Cc1nn(C)cc1C(C(=O)NC1CCCCC1)N(C(=O)Cc1cccs1)c1ccc(C(C)C)cc1 (centres undefined) | inconclusive: 38.3% |
| COCCN(C(=O)COC(=O)c1cc2ccccc2cc1OC)c1c(N)n(Cc2ccccc2)c(=O)[nH]c1=O | inconclusive: -1.2% |
| O=C(CSc1nc2ccccc2c(=O)n1NC(=O)c1ccccc1)c1ccc(Cl)cc1 | inconclusive: 7.8% |
| N#CC1=C(N)Oc2cc(O)ccc2C1c1ccccc1 (centres undefined) | inactive: 1.4% |
| O=C(CN1C(=O)NC2(CCCCCC2)C1=O)c1ccc(F)cc1 | inconclusive: 9.5% |
| O=C1CCCN1CCC1CCN(C(=S)Nc2ccc(F)cc2)CC1 | inconclusive: 2.5% |
| CC(C)Cn1c(N)c(C(=O)COC(=O)C2CC(=O)N(Cc3ccccc3Cl)C2)c(=O)n(C)c1=O (centres undefined) | inactive: 0.5% |
| COc1ccc(OC)c(/C=C2\SC(=S)N(Cc3cccnc3)C2=O)c1 | active: 41.7% |
| Cc1ccc(NC(=O)c2cc(C(C)(C)C)nn2Cc2ccccc2)cc1 | inconclusive: -22.5% |
| O=C(CNC(=O)c1cccc(-n2cnnn2)c1)Nc1ccc(F)c(F)c1 | inactive: -0.9% |
| CCOC(=O)[C@H]1[C@H]2COc3ccc(C)cc3[C@@H]2N2C(=O)CN(Cc3ccc(Cl)cc3)C(=O)[C@@]12C | inactive: -0.4% |
| c1ccc(CCn2nnnc2CN2CCCc3ccccc32)cc1 | inconclusive: 7.3% |
| Cc1c(NC(=O)c2ccccc2F)c(=O)n(-c2ccccc2)n1C | inconclusive: -1% |
| Cc1csc(NC(=O)c2oc3ccccc3c2C)n1 | inconclusive: -1% |
| Cc1ccc(C2(C)NC(=O)N(CC(=O)Nc3ccc(Cl)c(S(=O)(=O)N4CCCCC4)c3)C2=O)cc1 (centres undefined) | inconclusive: -1.4% |
| COc1ccc([N+](=O)[O-])cc1NC(=O)c1ccc(Br)s1 | inactive: -0.9% |
| O=[N+]([O-])c1ccc(NN=Cc2ccc(O)cc2)nc1 | inactive: -0.2% |
| CC(=O)Nc1ccc2c(c1)nc(C)n2-c1ccccc1 | inconclusive: -3.6% |
| O=C(NNC(=O)c1ccccc1Cl)c1cc2cc(OC(F)(F)F)ccc2[nH]1 | inconclusive: 12.7% |
| Cc1csc(NC(=O)C2C3C=CC(C3)C2C(=O)O)n1 (centres undefined) | inconclusive: 4.1% |
